PMC12631847
No constants are given. Whether binding was seen depends on the method and setting. Binding seen in cells or lysates may run through a third protein. Some entries that bind do so weakly or less than the wild type. Tags and fused reporters may be left off the sequences shown.

Sequences of proteins named here, by UniProt entry; tags and fusion partners are left off.
UniProt Q9H0U4: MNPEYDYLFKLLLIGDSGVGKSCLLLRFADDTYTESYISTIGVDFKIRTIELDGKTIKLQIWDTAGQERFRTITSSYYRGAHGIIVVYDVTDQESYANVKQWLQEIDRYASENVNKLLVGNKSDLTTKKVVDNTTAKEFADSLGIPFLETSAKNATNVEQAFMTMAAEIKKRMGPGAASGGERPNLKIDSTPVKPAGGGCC

Target: GST-RAB1B (human) (UniProt Q9H0U4)
Test: pull-down; GST-RAB1B (10 µg) on magnetic GSH beads loaded with 1 mM GTP-γ-S; 500 µg BT549 lysate, 1 h 4 °C; anti-HA immunoblot; only the target purified

B1: HA-TBC1D22B (protein, UniProt Q9NU19 1-505)
chain: MAAENSKQFWKRSAKLPGSIQPVYGAQHPPLDPRLTKNFIKERSKVNTVPLKNKKASSFHEFARNTSDAWDIGDDEEEDFSSPSFQTLNSKVALATAAQVLENHSKLRVKPERSQSTTSDVPANYKVIKSSSDAQLSRNSSDTCLRNPLHKQQSLPLRPIIPLVARISDQNASGAPPMTVREKTRLEKFRQLLSSQNTDLDELRKCSWPGVPREVRPITWRLLSGYLPANTERRKLTLQRKREEYFGFIEQYYDSRNEEHHQDTYRQIHIDIPRTNPLIPLFQQPLVQEIFERILFIWAIRHPASGYVQGINDLVTPFFVVFLSEYVEEDVENFDVTNLSQDMLRSIEADSFWCMSKLLDGIQDNYTFAQPGIQKKVKALEELVSRIDEQVHNHFRRYEVEYLQFAFRWMNNLLMRELPLRCTIRLWDTYQSEPEGFSHFHLYVCAAFLIKWRKEILDEEDFQGLLMLLQNLPTIHWGNEEIGLLLAEAYRLKYMFADAPNHYRR
**Q.** Which binding does the source give for B1 here?
**A.** Its binding is “binds”.
